Measurements taken from article PMC9061300.

Sequences of proteins named here, by UniProt entry; tags and fusion partners are left off.
UniProt Q96HA1: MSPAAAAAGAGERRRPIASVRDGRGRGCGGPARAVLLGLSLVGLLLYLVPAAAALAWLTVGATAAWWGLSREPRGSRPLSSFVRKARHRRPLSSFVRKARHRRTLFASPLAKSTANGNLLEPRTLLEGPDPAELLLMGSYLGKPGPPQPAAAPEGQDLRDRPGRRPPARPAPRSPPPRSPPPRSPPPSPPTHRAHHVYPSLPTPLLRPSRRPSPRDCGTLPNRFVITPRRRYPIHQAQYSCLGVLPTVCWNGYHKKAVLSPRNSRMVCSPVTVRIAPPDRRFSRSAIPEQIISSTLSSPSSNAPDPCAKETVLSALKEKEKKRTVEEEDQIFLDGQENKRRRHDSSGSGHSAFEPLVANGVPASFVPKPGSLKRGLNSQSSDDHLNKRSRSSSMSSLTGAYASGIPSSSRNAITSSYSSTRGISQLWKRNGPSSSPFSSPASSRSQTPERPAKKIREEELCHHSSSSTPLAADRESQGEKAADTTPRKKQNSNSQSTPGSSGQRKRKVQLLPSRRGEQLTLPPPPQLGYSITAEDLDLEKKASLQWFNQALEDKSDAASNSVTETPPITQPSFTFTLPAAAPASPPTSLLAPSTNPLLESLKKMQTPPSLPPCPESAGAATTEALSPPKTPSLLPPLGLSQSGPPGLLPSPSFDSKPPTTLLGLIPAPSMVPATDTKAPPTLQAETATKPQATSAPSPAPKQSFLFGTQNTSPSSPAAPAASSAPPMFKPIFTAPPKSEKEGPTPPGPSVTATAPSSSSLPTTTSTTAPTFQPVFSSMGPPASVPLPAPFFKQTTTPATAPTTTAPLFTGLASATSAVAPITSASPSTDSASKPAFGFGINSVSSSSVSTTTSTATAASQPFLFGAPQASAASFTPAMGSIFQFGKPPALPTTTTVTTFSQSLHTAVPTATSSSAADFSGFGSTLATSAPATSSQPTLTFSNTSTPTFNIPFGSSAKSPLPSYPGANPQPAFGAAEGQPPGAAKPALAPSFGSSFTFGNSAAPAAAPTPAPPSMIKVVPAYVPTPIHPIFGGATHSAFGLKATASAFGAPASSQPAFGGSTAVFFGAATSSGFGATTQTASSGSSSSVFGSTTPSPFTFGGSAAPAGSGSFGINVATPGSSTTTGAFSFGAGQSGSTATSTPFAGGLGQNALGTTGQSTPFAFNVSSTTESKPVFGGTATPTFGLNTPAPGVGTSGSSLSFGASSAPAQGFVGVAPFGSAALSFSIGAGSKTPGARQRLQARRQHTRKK
UniProt A8CG34: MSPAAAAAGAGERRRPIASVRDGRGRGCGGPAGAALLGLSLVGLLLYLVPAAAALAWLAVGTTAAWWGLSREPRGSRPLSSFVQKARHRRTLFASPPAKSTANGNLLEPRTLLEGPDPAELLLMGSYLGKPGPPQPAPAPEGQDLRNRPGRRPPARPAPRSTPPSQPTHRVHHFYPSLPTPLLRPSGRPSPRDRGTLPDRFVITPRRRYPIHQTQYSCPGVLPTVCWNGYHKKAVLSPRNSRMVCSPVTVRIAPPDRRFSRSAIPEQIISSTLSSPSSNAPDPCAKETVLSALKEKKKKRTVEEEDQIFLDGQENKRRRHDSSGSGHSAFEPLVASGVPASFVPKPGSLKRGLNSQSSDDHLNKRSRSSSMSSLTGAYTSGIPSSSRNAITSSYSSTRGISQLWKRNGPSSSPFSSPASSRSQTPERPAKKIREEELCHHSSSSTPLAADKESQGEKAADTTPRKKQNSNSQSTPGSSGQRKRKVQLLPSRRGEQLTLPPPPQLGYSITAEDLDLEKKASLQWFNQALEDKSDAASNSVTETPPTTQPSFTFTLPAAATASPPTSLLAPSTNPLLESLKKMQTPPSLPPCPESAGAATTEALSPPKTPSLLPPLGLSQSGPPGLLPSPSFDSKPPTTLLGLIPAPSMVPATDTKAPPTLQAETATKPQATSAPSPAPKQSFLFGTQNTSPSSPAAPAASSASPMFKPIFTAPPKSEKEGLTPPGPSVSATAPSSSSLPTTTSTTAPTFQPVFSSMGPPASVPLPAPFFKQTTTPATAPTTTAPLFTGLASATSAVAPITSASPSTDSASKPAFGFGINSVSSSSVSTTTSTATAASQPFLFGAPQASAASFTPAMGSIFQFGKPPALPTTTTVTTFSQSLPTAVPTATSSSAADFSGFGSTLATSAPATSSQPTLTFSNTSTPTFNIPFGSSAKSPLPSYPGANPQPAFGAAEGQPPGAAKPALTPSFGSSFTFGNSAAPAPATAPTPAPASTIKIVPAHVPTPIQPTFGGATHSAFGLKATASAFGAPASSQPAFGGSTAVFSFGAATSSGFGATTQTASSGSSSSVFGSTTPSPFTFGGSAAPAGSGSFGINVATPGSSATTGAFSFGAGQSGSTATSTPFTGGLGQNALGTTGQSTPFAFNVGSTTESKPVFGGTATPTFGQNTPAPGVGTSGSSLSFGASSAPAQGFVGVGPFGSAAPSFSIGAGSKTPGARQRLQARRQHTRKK
UniProt P49790: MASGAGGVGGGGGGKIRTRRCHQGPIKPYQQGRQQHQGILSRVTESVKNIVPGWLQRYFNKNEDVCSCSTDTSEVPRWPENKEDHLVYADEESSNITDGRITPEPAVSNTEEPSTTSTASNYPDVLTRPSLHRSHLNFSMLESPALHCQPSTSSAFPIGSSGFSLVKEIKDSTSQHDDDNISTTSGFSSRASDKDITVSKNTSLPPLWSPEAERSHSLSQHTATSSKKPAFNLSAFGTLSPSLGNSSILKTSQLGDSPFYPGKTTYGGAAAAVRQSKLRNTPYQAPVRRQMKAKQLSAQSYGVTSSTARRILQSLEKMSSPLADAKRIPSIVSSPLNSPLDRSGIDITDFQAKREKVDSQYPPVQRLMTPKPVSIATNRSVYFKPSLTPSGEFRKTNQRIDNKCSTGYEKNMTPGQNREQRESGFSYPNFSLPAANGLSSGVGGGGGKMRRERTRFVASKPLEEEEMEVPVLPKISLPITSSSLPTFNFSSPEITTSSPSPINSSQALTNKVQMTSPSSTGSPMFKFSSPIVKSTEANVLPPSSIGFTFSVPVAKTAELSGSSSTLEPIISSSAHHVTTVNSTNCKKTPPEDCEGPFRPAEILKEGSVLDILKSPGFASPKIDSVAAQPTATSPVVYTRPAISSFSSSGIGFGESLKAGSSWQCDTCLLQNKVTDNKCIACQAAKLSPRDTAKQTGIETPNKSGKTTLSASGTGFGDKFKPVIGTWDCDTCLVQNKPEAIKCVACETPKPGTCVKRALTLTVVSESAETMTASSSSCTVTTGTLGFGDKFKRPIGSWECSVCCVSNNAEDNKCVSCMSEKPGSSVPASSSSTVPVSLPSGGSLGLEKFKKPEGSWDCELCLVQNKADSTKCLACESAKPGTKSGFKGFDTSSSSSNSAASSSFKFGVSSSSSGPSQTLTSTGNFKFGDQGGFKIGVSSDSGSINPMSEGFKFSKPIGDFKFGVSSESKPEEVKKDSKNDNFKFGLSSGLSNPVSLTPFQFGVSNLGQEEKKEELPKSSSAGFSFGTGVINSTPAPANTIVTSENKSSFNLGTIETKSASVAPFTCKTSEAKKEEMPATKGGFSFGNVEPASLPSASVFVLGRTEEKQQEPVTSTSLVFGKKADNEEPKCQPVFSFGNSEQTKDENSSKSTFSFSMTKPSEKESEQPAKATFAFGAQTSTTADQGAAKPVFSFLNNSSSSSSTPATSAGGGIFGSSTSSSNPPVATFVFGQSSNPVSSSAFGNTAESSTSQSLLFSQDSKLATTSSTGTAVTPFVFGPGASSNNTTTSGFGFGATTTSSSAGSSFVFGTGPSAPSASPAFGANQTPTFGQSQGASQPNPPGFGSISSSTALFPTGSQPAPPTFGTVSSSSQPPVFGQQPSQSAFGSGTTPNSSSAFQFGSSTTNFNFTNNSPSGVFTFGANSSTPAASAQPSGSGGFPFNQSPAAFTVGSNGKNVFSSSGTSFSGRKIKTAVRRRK

Biological target: T1, Flag-BirA*-IPO11 (importin 11) (UniProt Q9UI26)
T1 sequence: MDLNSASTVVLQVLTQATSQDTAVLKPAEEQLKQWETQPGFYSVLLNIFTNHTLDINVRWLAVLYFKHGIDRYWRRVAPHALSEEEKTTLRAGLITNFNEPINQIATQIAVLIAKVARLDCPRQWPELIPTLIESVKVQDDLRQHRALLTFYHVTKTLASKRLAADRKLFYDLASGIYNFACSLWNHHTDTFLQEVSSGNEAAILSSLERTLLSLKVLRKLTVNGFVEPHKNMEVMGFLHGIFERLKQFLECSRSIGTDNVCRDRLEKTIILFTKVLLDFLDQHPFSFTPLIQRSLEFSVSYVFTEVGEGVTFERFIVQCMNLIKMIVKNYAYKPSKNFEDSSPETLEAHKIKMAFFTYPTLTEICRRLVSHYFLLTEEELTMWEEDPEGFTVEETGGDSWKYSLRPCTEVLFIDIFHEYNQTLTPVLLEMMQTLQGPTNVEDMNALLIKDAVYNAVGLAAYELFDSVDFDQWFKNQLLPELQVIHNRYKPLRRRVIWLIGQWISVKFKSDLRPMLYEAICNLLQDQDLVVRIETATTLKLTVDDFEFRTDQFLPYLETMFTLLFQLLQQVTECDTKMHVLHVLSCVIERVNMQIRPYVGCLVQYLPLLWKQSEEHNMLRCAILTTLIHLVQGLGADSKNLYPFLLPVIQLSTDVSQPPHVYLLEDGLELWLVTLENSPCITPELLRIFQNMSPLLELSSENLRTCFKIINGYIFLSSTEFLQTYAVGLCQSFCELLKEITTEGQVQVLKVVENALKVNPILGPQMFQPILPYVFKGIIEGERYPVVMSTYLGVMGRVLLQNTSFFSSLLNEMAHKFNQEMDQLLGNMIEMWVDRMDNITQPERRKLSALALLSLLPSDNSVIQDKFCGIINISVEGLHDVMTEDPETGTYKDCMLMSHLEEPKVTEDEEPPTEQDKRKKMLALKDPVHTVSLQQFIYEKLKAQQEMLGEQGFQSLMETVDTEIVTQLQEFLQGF
Assay: proximity labelling; BioID: Flag-BirA*-IPO11 induced in HEK293T-REx cells; biotinylated proteins identified by mass spectrometry; compared with the Flag-BirA* control

Molecule: POM121 (from UniProt Q96HA1 1-1249)
binding: binds

Molecule: POM121C (from UniProt A8CG34 1-1229)
binding: binds

B3: basic leucine zipper and W2 domains 2 (BZW2) (protein, UniProt Q9Y6E2-1 1-419)
chain: MNKHQKPVLTGQRFKTRKRDEKEKFEPTVFRDTLVQGLNEAGDDLEAVAKFLDSTGSRLDYRRYADTLFDILVAGSMLAPGGTRIDDGDKTKMTNHCVFSANEDHETIRNYAQVFNKLIRRYKYLEKAFEDEMKKLLLFLKAFSETEQTKLAMLSGILLGNGTLPATILTSLFTDSLVKEGIAASFAVKLFKAWMAEKDANSVTSSLRKANLDKRLLELFPVNRQSVDHFAKYFTDAGLKELSDFLRVQQSLGTRKELQKELQERLSQECPIKEVVLYVKEEMKRNDLPETAVIGLLWTCIMNAVEWNKKEELVAEQALKHLKQYAPLLAVFSSQGQSELILLQKVQEYCYDNIHFMKAFQKIVVLFYKADVLSEEAILKWYKEAHVAKGKSVFLDQMKKFVEWLQNAEEESESEGEEN
binding: binds

Results, then the molecule that gave them:

binding: binds
Molecule: NUP153 (from UniProt P49790 1-1475)

binding: binds
B1: basic leucine zipper and W2 domains 1 (BZW1) (protein, UniProt Q7L1Q6-1 1-419)
chain: MNNQKQQKPTLSGQRFKTRKRDEKERFDPTQFQDCIIQGLTETGTDLEAVAKFLDASGAKLDYRRYAETLFDILVAGGMLAPGGTLADDMMRTDVCVFAAQEDLETMQAFAQVFNKLIRRYKYLEKGFEDEVKKLLLFLKGFSESERNKLAMLTGVLLANGTLNASILNSLYNENLVKEGVSAAFAVKLFKSWINEKDINAVAASLRKVSMDNRLMELFPANKQSVEHFTKYFTEAGLKELSEYVRNQQTIGARKELQKELQEQMSRGDPFKDIILYVKEEMKKNNIPEPVVIGIVWSSVMSTVEWNKKEELVAEQAIKHLKQYSPLLAAFTTQGQSELTLLLKIQEYCYDNIHFMKAFQKIVVLFYKAEVLSEEPILKWYKDAHVAKGKSVFLEQMKKFVEWLKNAEEESESEAEEGD

binding: binds
B2: NUP50 (protein, UniProt Q9UKX7 1-468)
chain: MAKRNAEKELTDRNWDQEDEAEEVGTFSMASEEVLKNRAIKKAKRRNVGFESDTGGAFKGFKGLVVPSGGGRFSGFGSGAGGKPLEGLSNGNNITSAPPFASAKAAADPKVAFGSLAANGPTTLVDKVSNPKTNGDSQQPSSSGLASSKACVGNAYHKQLAALNCSVRDWIVKHVNTNPLCDLTPIFKDYEKYLANIEQQHGNSGRNSESESNKVAAETQSPSLFGSTKLQQESTFLFHGNKTEDTPDKKMEVASEKKTDPSSLGATSASFNFGKKVDSSVLGSLSSVPLTGFSFSPGNSSLFGKDTTQSKPVSSPFPTKPLEGQAEGDSGECKGGDEEENDEPPKVVVTEVKEEDAFYSKKCKLFYKKDNEFKEKGIGTLHLKPTANQKTQLLVRADTNLGNILLNVLIPPNMPCTRTGKNNVLIVCVPNPPIDEKNATMPVTMLIRVKTSEDADELHKILLEKKDA

These are yes or no findings as the source states them, for the method shown. Binding seen in cells or lysates may run through a third protein. Here binding means that the protein was enriched with, or labelled near, the bait; the list need not be complete. Sequences can lack the tags named with a protein. Each block holds one molecule with its values, some of them ahead of it.
